# Assay results from the supplement of paper PMC12067093, “Discovery and optimisation of a covalent ligand for TRIM25 and its application to targeted protein ubiquitination” (Chemical Science, 2025).
# By UniProt entry, the sequences of proteins in these tests, tags left out. Where a name states a change or a piece, a line headed by the entry shows the natural chain unless it says otherwise.
# UniProt Q9UHF1: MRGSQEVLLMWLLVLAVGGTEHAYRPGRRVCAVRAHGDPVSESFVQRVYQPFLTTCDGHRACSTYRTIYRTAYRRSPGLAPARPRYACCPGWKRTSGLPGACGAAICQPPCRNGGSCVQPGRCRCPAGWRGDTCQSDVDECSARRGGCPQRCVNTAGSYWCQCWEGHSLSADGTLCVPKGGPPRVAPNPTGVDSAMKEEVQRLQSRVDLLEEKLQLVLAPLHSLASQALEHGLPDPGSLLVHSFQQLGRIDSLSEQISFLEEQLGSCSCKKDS
# UniProt Q96C19: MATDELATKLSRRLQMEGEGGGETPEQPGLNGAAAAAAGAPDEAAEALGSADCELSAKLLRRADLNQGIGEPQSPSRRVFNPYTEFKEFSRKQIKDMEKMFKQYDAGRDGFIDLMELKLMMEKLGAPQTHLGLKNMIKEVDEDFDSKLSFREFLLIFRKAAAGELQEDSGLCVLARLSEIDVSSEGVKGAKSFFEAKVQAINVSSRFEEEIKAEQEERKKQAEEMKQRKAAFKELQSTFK
# UniProt Q9NR50: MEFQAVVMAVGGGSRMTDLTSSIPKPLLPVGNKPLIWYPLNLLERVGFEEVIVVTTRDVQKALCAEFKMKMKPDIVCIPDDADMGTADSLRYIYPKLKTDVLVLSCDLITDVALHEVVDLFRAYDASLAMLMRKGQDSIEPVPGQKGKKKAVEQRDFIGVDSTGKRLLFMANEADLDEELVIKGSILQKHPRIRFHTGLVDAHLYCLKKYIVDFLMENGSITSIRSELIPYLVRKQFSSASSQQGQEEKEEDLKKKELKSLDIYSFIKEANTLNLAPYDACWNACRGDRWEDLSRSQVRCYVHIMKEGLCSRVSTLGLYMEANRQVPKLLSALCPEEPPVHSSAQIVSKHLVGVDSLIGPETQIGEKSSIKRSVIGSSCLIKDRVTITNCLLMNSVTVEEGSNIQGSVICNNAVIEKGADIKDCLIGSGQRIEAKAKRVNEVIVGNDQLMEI
# UniProt P57772: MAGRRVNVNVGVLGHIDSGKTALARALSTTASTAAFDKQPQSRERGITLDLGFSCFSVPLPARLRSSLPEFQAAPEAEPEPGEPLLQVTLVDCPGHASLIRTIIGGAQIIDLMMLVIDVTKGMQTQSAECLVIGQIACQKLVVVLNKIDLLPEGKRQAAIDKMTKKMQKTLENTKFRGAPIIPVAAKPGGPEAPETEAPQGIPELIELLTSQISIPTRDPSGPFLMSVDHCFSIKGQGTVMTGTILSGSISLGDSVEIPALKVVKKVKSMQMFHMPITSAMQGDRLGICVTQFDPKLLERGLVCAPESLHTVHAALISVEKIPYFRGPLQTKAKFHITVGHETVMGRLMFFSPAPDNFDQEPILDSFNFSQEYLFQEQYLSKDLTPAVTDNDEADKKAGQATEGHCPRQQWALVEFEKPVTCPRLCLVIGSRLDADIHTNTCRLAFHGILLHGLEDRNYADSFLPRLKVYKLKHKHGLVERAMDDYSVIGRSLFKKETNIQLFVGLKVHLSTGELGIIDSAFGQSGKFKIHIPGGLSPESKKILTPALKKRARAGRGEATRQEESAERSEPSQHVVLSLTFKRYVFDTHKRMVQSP
# UniProt P19525: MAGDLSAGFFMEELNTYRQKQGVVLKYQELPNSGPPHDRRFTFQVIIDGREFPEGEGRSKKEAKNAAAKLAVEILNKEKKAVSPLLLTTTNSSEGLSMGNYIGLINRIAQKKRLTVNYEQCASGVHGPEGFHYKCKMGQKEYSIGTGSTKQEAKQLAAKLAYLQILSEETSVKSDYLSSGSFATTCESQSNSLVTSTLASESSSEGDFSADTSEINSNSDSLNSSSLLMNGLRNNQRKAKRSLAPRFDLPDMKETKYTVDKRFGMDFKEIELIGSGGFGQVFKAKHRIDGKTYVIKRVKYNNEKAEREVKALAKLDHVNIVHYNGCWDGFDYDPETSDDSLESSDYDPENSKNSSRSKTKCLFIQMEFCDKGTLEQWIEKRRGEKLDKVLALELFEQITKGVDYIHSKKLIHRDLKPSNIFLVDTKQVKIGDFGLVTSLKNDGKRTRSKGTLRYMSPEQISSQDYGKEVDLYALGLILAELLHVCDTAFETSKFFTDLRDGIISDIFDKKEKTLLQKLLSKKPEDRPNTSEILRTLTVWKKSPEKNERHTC
# UniProt Q96KQ7: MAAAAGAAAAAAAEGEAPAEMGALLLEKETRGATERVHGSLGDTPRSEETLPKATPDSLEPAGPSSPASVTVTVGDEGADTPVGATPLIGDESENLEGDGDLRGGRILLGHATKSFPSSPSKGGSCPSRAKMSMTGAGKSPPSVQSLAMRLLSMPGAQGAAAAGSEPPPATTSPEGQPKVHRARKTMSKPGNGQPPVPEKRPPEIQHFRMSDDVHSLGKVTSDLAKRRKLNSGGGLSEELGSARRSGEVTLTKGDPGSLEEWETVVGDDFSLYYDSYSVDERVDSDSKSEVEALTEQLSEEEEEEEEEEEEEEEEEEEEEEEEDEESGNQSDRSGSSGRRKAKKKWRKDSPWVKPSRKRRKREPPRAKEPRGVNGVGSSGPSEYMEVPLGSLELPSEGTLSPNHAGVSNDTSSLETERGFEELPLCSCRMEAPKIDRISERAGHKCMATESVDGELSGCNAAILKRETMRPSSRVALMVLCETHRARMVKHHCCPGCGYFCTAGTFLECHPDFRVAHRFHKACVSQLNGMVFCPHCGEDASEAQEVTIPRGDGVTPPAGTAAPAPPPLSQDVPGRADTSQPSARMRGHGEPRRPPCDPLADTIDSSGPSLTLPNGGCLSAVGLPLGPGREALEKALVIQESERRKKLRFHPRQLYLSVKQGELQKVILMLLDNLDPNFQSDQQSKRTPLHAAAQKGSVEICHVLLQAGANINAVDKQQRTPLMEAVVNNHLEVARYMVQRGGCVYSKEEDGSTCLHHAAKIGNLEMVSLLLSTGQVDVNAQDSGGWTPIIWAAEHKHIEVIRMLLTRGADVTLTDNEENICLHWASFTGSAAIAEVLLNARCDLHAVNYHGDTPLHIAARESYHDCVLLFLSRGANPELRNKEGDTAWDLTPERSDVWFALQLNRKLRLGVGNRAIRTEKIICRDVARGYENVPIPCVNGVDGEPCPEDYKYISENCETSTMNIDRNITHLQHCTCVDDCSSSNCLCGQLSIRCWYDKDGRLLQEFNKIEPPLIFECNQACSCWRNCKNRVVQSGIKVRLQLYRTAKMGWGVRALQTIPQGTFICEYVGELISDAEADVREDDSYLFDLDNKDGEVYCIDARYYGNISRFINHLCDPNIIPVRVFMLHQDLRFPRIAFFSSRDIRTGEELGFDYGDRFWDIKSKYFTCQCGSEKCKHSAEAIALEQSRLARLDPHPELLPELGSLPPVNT
# UniProt Q8N3D4: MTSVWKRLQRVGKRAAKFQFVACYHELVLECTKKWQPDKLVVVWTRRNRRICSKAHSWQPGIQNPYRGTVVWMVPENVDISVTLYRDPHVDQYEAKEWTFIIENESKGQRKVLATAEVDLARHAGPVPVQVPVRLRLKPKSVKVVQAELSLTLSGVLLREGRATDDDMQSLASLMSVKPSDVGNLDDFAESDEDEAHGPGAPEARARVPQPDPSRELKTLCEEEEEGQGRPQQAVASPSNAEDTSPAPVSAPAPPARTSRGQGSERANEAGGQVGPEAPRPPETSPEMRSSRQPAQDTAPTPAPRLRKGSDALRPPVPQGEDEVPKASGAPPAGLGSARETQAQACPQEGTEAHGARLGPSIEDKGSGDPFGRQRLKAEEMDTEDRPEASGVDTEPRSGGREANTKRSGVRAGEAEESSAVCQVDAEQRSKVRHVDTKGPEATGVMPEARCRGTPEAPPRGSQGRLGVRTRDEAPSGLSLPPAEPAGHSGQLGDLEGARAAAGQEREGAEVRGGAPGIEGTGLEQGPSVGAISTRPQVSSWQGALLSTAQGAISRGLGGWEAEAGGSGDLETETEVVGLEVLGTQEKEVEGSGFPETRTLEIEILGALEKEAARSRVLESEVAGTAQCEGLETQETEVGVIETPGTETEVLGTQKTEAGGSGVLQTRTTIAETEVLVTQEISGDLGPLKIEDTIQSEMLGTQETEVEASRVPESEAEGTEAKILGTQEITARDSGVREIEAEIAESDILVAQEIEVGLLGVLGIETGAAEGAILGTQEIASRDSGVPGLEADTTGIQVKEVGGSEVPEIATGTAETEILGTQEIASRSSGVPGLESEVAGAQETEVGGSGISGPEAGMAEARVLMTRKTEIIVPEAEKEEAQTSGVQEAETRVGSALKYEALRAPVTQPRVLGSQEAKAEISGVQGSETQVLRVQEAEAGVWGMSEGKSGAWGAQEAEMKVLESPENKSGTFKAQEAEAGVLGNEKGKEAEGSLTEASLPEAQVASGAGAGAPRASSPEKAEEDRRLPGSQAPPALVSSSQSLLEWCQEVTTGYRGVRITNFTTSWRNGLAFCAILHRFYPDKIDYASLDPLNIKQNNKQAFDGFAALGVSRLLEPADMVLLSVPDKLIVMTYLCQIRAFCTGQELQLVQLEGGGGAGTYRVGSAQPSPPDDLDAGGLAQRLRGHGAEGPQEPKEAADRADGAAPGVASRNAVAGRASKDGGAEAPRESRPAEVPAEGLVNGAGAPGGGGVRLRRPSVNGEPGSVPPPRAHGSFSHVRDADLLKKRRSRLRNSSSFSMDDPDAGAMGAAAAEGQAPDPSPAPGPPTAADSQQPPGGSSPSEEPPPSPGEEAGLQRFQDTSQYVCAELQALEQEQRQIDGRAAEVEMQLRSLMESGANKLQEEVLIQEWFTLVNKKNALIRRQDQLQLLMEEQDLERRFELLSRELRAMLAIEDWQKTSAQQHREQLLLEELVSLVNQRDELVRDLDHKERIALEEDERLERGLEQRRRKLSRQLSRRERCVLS
# UniProt Q15029: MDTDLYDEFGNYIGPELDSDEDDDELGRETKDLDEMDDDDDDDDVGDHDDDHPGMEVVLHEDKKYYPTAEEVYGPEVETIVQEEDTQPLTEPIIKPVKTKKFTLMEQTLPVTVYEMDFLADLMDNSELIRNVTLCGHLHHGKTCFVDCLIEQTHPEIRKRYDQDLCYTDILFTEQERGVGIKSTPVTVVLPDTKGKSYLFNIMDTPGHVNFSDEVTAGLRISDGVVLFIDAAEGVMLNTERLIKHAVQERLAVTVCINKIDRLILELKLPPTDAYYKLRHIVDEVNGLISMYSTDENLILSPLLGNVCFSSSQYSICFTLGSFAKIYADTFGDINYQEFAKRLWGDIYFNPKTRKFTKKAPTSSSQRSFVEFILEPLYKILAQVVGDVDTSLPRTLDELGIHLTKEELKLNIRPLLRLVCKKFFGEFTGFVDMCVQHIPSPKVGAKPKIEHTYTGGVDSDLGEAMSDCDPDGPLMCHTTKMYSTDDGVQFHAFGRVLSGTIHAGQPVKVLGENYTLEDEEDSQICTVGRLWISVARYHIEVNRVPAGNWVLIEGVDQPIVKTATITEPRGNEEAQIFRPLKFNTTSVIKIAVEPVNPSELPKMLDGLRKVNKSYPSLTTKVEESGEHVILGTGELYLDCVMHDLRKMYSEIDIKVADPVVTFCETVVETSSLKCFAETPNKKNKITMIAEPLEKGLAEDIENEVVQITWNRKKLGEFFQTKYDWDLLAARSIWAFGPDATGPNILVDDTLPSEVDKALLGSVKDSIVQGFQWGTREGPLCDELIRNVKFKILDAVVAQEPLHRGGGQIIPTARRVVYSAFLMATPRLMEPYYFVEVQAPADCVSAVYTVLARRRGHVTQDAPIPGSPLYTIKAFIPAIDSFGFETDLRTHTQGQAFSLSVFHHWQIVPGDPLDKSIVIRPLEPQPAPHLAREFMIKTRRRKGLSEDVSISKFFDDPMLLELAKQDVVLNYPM
# UniProt P05198, whole entry, looked up: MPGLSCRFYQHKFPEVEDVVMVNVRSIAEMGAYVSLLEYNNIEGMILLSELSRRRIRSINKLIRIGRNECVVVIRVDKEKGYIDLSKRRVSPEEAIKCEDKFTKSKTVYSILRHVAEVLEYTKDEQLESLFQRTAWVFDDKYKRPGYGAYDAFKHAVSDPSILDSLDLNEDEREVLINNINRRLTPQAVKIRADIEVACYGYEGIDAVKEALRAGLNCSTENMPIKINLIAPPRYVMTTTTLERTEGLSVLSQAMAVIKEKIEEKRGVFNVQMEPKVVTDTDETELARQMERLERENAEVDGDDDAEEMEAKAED
# The list shows a part of the results.
# Compound: CC1Cc2ccccc2N1C(=O)C1CCCN(C1)C(=O)CCl (mixture of isomers) [TRIM25 ligand 11 (diastereomer mixture)]
# Experiment: probe-labelled cysteine peptide fold change vs DMSO (competition) (log2 fold change); higher = less target engagement (more negative = stronger competition)
# Conditions: THP-1, incubation time: 4 h
# 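Further: competitive chemoproteomic profiling in live THP-1 cells with an iodoacetamide desthiobiotin (IA-DTB) probe, comparing probe-labelled peptide intensities in compound-treated cells against DMSO-treated controls.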
Target,probe-labelled cysteine peptide fold change (10 µM),probe-labelled cysteine peptide fold change (50 µM)
EGFL7_Q9UHF1_267_IDSLSEQISFLEEQLGSCSCK (UniProt Q9UHF1),-0.0508,-0.221
EFHD2_Q96C19_172_KAAAGELQEDSGLCVLAR (UniProt Q96C19),-0.186,-0.399
EIF2B3_Q9NR50_64_ALCAEFK (UniProt Q9NR50),0.121,0.272
EHMT1_Q9H9B1_58_QAGEAHMAADGETNGSCENSDASSHANAAK (UniProt Q9H9B1),-0.0747,-0.229
EEFSEC_P57772_289_LGICVTQFDPK (UniProt P57772),0.0684,0.133
EIF2AK2_P19525_121_LTVNYEQCASGVHGPEGFHYK (UniProt P19525),0.0635,-0.00194
EHMT2_Q96KQ7_866_ESYHDCVLLFLSR (UniProt Q96KQ7),0.116,-0.0273
EHBP1L1_Q8N3D4_346_ETQAQACPQEGTEAHGAR (UniProt Q8N3D4),0.0614,0.108
EFL1_Q7Z2Z2_474_LAAAQGQAPLEPTQDGSAIETCPK (UniProt Q7Z2Z2),0.0723,-0.0745
EEF1A1_P68104_363+370_GNVAGDSKNDPPMEAAGFTAQVIILNHPGQISAGYAPVLDCHTAHIACK (UniProt P68104),-0.278,-0.376
EFTUD2_Q15029_256_LAVTVCINK (UniProt Q15029),-0.0606,-0.0059
EIF2S1_P05198_70_NECVVVIRVDK (UniProt P05198),-0.282,0.00188
EFTUD2_Q15029_639_VEESGEHVILGTGELYLDCVMHDLR (UniProt Q15029),0.0921,-0.058

# Rewritten as tab-separated lines: part of the list above.
Target	probe-labelled cysteine peptide fold change (10 µM)	probe-labelled cysteine peptide fold change (50 µM)
EIF2AK2_P19525_121_LTVNYEQCASGVHGPEGFHYK (UniProt P19525)	0.0635	-0.00194
EHMT2_Q96KQ7_866_ESYHDCVLLFLSR (UniProt Q96KQ7)	0.116	-0.0273
EHBP1L1_Q8N3D4_346_ETQAQACPQEGTEAHGAR (UniProt Q8N3D4)	0.0614	0.108
